Hit rate of the full screen: of about 330,000 compounds, about 1,000 (0.3%) were called active. This list was built around the results that the source calls inconclusive (neither active nor inactive); the mix of calls is not that of the screen. Calls follow the shape of the dose curve; as a rule, active = well fitted inhibition curve with a large enough effect; inconclusive = small, poorly fitted or top-dose-only effect; inactive = no such curve, though single readings can be large or run the other way; tested in mouse RAW 264.7 cells. A potency beside an inconclusive call is a rough fit, not a confirmed value.
Test: qHTS for Inhibitors of Cell Surface uPA Generation; also: nearly all actives have a fitted effect of over 55% in size
Conditions: cell surface uPA generation assay; series mostly up to 38.3 µM
Procedure, shortened: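 RAW 264.7 cells, 4000/well, given compound (1:5 dilutions, up to 38.3 uM final) and incubated 24 h at 37 C. Blocked uPA-dependent LF entry keeps ATP high; ATPlite luminescence read, 5 s exposure.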
Potency is read from the fitted curve at half-maximal effect.

**Q.** For `COc1ccc(NC(=O)c2ccc([N+](=O)[O-])s2)c([N+](=O)[O-])c1`, which Potency is on record?
**A.** inconclusive: 1 µM [inhibitor, full curve]

**Q.** For `Cc1ccc(C(=O)c2sc3c(c2N)c(=O)[nH]c(=O)n3CCc2ccccc2)cc1`, which Potency is on record?
**A.** inactive

**Q.** For `Cc1cccc(NC(=O)Cn2nnc(C(=O)NCc3cccs3)c2N)c1C`, which Potency is on record?
**A.** inactive

**Q.** Which Potency does the source give for `COc1ccc(/C=C/C(=O)c2ccc(C(=O)/C=C/c3ccc(OC)c(OC)c3)cc2)cc1OC` here?
**A.** inconclusive: 7.08 µM [inhibitor, single point]

**Q.** With `COc1ccc(CN(C)CC(=O)Nc2ccccc2C(F)(F)F)cc1` as the compound, how does the Potency read?
**A.** inconclusive: 10 µM [inhibitor, partial curve, poor fit]

**Q.** Which Potency does the source give for `OC(CN1CCN(c2ccccn2)CC1)Cn1c2ccccc2c2ccccc21` (stereo not drawn) here?
**A.** inconclusive: 20 µM [inhibitor, single point]

**Q.** For `CC(=O)N1CCN(c2ncnc3sc(-c4ccccc4)cc23)CC1`, which Potency is on record?
**A.** inconclusive: 2.51 µM [inhibitor, partial curve, poor fit]

**Q.** Which Potency does the source give for `O=C(O)CCSc1nc2ccccc2n1-c1ccccc1` here?
**A.** inactive

**Q.** For `CCN(CC)c1ccc(/C=N/NC(=O)c2ccc3c(c2)OCCO3)cc1`, which Potency is on record?
**A.** inconclusive: 1.12 µM [inhibitor, full curve, poor fit]

**Q.** Which Potency does the source give for `Clc1nc(-c2cccnc2)nc2scc(-c3ccccc3)c12` here?
**A.** inconclusive: 8.91 µM [inhibitor, partial curve, poor fit]

**Q.** Which Potency does the source give for `Cc1nc(NC(=O)C2CC2)sc1C(=O)Nc1ccc(Br)cc1` here?
**A.** inconclusive: 0.708 µM [inhibitor, full curve, poor fit]

**Q.** For `Cc1ccc(S(=O)(=O)N[C@H](C(=O)N2CCC(C(=O)N[C@@H](CC(=O)O)C(=O)O)CC2)C(C)C)cc1`, which Potency is on record?
**A.** inactive

**Q.** Which Potency does the source give for `CCCCCCCC(=O)Nc1ccc(S(=O)(=O)Nc2nccs2)cc1` here?
**A.** inactive

**Q.** For `COc1ccc(OC)c(CNc2ncc(-c3cccc([N+](=O)[O-])c3)n2C)c1`, which Potency is on record?
**A.** inconclusive: 10 µM [inhibitor, partial curve]

**Q.** Which Potency does the source give for `Cc1ccccc1C(=O)N1CCC(C(=O)Nc2ccc(S(=O)(=O)N3C(C)CCCC3C)cc2)CC1` (stereo not drawn) here?
**A.** inconclusive: 10 µM [inhibitor, partial curve, poor fit]

**Q.** With `C/C(=N\N1C(=O)c2ccccc2NC1c1ccccc1)c1ccccc1O` (stereo not drawn) as the compound, how does the Potency read?
**A.** inactive

**Q.** With `O=C(Nc1nc(-c2nc3ccccc3s2)cs1)C1CC1` as the compound, how does the Potency read?
**A.** inconclusive: 11.2 µM [inhibitor, partial curve, poor fit]

**Q.** Which Potency does the source give for `CCOC(=O)c1[nH]c(C)c(C(=O)N2CCN(c3ccc(F)cc3)CC2)c1C` here?
**A.** inconclusive: 12.6 µM [inhibitor, single point]
